Several values for one entry are separate records, joined by “and”; a condition that tells them apart may be missing. Equal values may be shown once. The campaign covered roughly 580,000 compounds. About 6,100 (1.1%) were called active. Inconclusive means that the source gave no clear call. Such entries were picked first, then a sample of the others. Calls come from the whole dose curve; as a rule, active = well fitted inhibition curve with a large enough effect; inconclusive = small, poorly fitted or top-dose-only effect, or another doubt; inactive = no such curve, though single readings can be large or run the other way. A potency beside an inconclusive call is a rough fit, not a confirmed value.
target: Polyunsaturated fatty acid lipoxygenase ALOX12 (Homo sapiens) (UniProt P18054); test: Primary qHTS assay for inhibitors of human arachidonate 12S-lipoxygenase (ALOX12): Round 2; conditions: purified 12hLO, xylenol orange hydroperoxide absorbance; activity change, negative = inhibition: at 108 µM (top of the series) unless noted
In short: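 Purified human 12hLO at 150 nM in 25 mM Hepes, 0.01% Triton X-100, pH 7.0, preincubated 15 min at room temperature with compound. Reaction started with 40 uM arachidonic acid, 30 min at room temperature. Hydroperoxide measured by Fe-xylenol orange, 573/405 nm absorbance ratio.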
% is set by controls: 0 for no effect and ±100 for the full control effect; potency is the fitted concentration of half-maximal effect.

The chains behind the UniProt entries cited, without tags or fusion partners. Where a name states a change or a piece, a line headed by the entry shows the natural chain unless it says otherwise.
UniProt P18054: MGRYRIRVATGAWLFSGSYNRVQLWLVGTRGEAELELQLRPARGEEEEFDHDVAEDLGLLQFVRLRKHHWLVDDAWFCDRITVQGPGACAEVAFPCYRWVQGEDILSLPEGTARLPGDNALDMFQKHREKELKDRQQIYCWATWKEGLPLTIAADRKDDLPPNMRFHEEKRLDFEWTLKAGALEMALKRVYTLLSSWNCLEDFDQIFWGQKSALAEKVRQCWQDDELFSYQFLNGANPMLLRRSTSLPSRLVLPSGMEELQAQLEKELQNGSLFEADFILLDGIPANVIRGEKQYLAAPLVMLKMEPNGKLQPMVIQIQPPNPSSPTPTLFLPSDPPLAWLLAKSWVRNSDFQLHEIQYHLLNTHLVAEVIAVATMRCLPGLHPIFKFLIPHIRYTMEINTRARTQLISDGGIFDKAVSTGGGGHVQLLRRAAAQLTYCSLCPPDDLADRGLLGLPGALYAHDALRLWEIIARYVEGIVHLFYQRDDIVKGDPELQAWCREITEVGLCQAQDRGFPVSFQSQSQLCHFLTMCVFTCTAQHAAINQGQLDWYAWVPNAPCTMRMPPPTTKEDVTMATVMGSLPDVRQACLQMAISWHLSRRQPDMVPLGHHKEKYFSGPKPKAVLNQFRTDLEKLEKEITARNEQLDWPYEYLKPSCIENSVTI

Structure (SMILES) | Potency | activity change, negative = inhibition
O/N=C/c1cc(Br)ccc1OCc1cccc(F)c1 | inconclusive: 126 µM [inhibitor, partial curve, poor fit] | 
Fc1ccc(NC(=S)N2CCN(c3cccc(C(F)(F)F)c3)CC2)cc1 | inconclusive: 3.16 µM [inhibitor, full curve] | 
Cc1ccc(NS(=O)(=O)c2ccc3[nH]c(=O)oc3c2)c(C)c1 | active: 50.1 µM and inconclusive: 39.8 µM [inhibitor, partial curve, poor fit] | 
COc1cc(CC(=O)OCC(=O)Nc2ccc(N3CCOCC3)cc2)cc(OC)c1OC | inactive | 
c1cc2c(cc1C1CCCCC1)c1c3n2CCCNC3CCC1 (configuration not stated) | inconclusive: 44.7 µM [inhibitor, partial curve, poor fit] | 
O=C(CNS(=O)(=O)c1ccc2ccccc2c1)OCc1nnc(-c2ccccc2)o1 | inactive | 
Cc1cccc(OCCCCc2c(C)n[nH]c2C)c1 | inconclusive: 25.1 µM [inhibitor, partial curve, poor fit] | 
C/C(Cl)=C\Cc1c(C)nc2c(C)cccc2c1Cl | inactive | 
CS(=O)(=O)c1ccc2nc(NC(=O)c3ccccc3)sc2c1 | inactive | 
CC(=O)N1CCN(CC[C@H]2CN(C(=O)Cc3ccccc3)CC[C@H]2CC(=O)O)CC1 | inactive | 
CSCc1ccc(C(=O)Nc2cccc(F)c2)o1 | inactive | 
Cc1c(-c2cccc(Cl)c2)nc2ccccc2c1C(=O)NC1CCCC1 | inconclusive: 25.1 µM [inhibitor, partial curve, poor fit] | 
Cc1c(NC(=O)Nc2ccc(Br)cc2F)sc2nc3n(c(=O)c12)CCC(C)CC3 (configuration not stated) |  | inconclusive: -37.5% [inhibitor]
CN(C)CCCN1C(=O)C(O)=C(C(=O)c2cc3ccccc3o2)C1c1ccccc1 (configuration not stated) | inconclusive: 31.6 µM [inhibitor, partial curve, poor fit] | 
O=c1c(N2CCN(Cc3ccccc3)CC2)csc2ccc(Br)cc12 | inconclusive: 11.2 µM [inhibitor, full curve, poor fit] | 
Nc1nc(SCc2ccc([N+](=O)[O-])cc2)nc2nc3c(cc12)CCCC3 | inactive | 
Cc1sc2nc(SCc3noc(C(C)(C)C)n3)n(C)c(=O)c2c1C | inactive | 
O=C(c1nnn2c1COC(c1ccc(Cl)cc1)C2)N1CCN(C(=O)C2(c3ccccc3)CC2)CC1 (configuration not stated) | inactive | 
Cn1c(N)c(C(=O)COC(=O)c2cccc(S(=O)(=O)NCc3ccccc3)c2)c(=O)n(C)c1=O | inactive | 
O=C1CCSc2ccc(C(=O)NNC(=O)c3ccccn3)cc2N1 | inactive | 
Nc1nc(Br)c2c(F)cccc2c1-c1ccc(Cl)cc1 | inactive | 
Cc1csc(NC(=O)c2ccc3ccccc3n2)n1 | active: 14.1 µM | 
Cc1nn2c(=O)cc(CSc3nc4ccccc4[nH]3)nc2s1 | inactive | 
CCOc1ccc(C(=O)N2CCCC3(C2)NC(=O)N(Cc2ccc(Cl)cc2)C3=O)cc1 (configuration not stated) | inconclusive: 25.1 µM [inhibitor, full curve, poor fit] | 

Structure (SMILES) | Potency | activity change, negative = inhibition
CC(=O)N1CCN(c2nc3c(s2)CC(C(=O)Nc2ccc(F)c(Cl)c2)CC3)CC1 (configuration not stated) | inconclusive: 15.8 µM [inhibitor, full curve] | 
CC(=O)c1c(OCCC(C)C)ccc2c(C)cc(=O)oc12 | inconclusive: 70.8 µM [inhibitor, partial curve, poor fit] | 
CCc1ccc(-n2c(=O)c3c(C)c(C)sc3n(CC(=O)NCc3ccc(C)cc3)c2=O)cc1 | inconclusive: 141 µM [inhibitor, partial curve, poor fit] | 
COc1ccc(CCN(Cc2nc3ccccc3c(=O)[nH]2)C(=O)C2CC2)cc1 | inactive | 
Cc1ccc(S(=O)(=O)Nc2cc(C)cc(CCNC=O)c2C)cc1 | inconclusive: 112 µM [inhibitor, single point] | 
NC(=O)CN1CCC(NC(=O)c2cccc(F)c2)CC1 | inconclusive: 112 µM [inhibitor, single point] | 
CCOc1ccc(/C=C2\SC(=S)N(CC(=O)NCCCN3CCOCC3)C2=O)cc1 | inconclusive: 50.1 µM [inhibitor, partial curve, poor fit] | 
O=C(NCCC1=CCCCC1)c1ccc2c(c1)N(Cc1ccccc1)C(=O)CS2 | inactive | 
Cc1ccccc1-c1cc(C(=O)N2CCOCC2)c2ccccc2n1 | inactive | 
COc1ccc(C(C)NC(=O)c2ccc(Cn3ccn4nc5c(c4c3=O)CCCC5)cc2)cc1 (configuration not stated) | inconclusive: 28.2 µM [inhibitor, full curve, poor fit] | 
C=CCC1(C(=O)O)CCCN(C(=O)CCCc2ccc(OC)cc2)C1 (configuration not stated) | inconclusive: 25.1 µM [inhibitor, full curve, poor fit] | 
Cc1cc(C)c2c(N=NN3CCCCC3)[nH]nc2n1 | inactive | 
COc1ccccc1N1CN(Cc2ccccc2)CNC1=S | inconclusive: 89.1 µM [inhibitor, partial curve, poor fit] | 
OC[C@H]1O[C@H](c2nc(-c3nc(-c4cccc(-n5cccc5)c4)no3)cs2)C[C@@H]1O | inactive | 
COc1ccccc1CC(=O)N1CCN(C(=O)c2nnn3c2COC(c2ccc(C)cc2)C3)CC1 (configuration not stated) | inactive | 
O=C1CCN(C(=O)COc2ccc(F)cc2)CCCC(c2nc(-c3cccnc3)no2)CCN1 (configuration not stated) | inconclusive: 28.2 µM [inhibitor, full curve] | 
Cc1cc(C(=O)OCC(=O)c2cc(C)n(CCc3ccccc3)c2C)c2ccccc2n1 | inconclusive: 28.2 µM [inhibitor, partial curve, poor fit] | 
CCN(c1ccccc1)S(=O)(=O)c1cc(C(=O)Nc2ccc3oc(C)nc3c2)ccc1C | inactive | 
Cc1c[n+]([O-])n(-c2ccc(C(=O)O)cc2)n1 | inconclusive: 7.94 µM [inhibitor, partial curve, poor fit] | 
Cc1ccc(S(=O)(=O)NC(=O)CSc2nc3ccccc3s2)cc1 | inconclusive: 63.1 µM [inhibitor, partial curve, poor fit] | 
COc1cc(/C=C2/C(=O)ON=C2C)ccc1OCc1ccccc1F | inconclusive: 7.94 µM [inhibitor, full curve] | 
COc1cc(/C=C(\C#N)c2nc3ccccc3[nH]2)cc(Cl)c1OCc1ccccc1Cl | inactive | 
Cc1cc(NC(=O)c2cccs2)ncc1NC(=O)C(C)(C)C | inactive | 
O=C(c1ccc(F)cc1)N1CCCC(c2nc(C3CCOCC3)no2)C1 (configuration not stated) | inactive | 

Structure (SMILES) | Potency | activity change, negative = inhibition
C#Cc1ccc([C@H]2C=C(C(=O)OCC=C)O[C@@H](OCc3ccc(CO)cc3)C2)cc1 | inconclusive: 39.8 µM [inhibitor, partial curve] | 
CCOC(=O)/C=C/[C@H]1CCc2cccc(Cl)c2O1 | inactive | 
CCCn1c(C(C)Nc2nc(C)cs2)nc2cc(Cl)c(Cl)cc21 (configuration not stated) | inconclusive: 50.1 µM [inhibitor, partial curve, poor fit] | 
O=C(CN1C(=O)CNC1=O)N1CCCC(Nc2ccc3c(c2)OCO3)C1 (configuration not stated) | inconclusive: 20 µM [inhibitor, full curve] | 
CCc1cccc(CC)c1NC(=O)COC(=O)c1cc(C)nc2ccccc12 | inactive | 
COc1ccc(CNCC(=O)Nc2ccccc2-n2cccc2)cc1 | inactive | 
CC(=O)N[C@@H]1C=C(C(=O)NCCC(N)=O)C[C@@H](O)[C@@H]1O | inconclusive: 50.1 µM [inhibitor, partial curve, poor fit] | 
O=C(CCCCn1c(=O)c2ccccc2n(Cc2ccc(F)cc2)c1=O)NCc1ccco1 | inconclusive: 44.7 µM [inhibitor, partial curve, poor fit] | 
N#CCN(C(=O)c1cc2c(F)cccc2s1)C1CC1 | inconclusive: 39.8 µM [inhibitor, partial curve] | 
O=C(CSc1nc2cc3c(cc2c(=O)n1Cc1ccco1)OCO3)Nc1ccc(F)cc1 | inconclusive: 39.8 µM [inhibitor, partial curve] | 
O=C(Nc1cccc2ccccc12)O[C@@H]1CO[C@H]2[C@@H]1OC[C@@H]2NCC1CCCCC1 | inconclusive: 112 µM [inhibitor, partial curve, poor fit] | 
O=c1c2ccccc2nnn1CSc1nc2ccccc2c(=O)n1CCCO | inactive | 
COc1ccc(N2CCN(C(=O)COC(=O)CNC(=O)c3ccccc3)CC2)cc1 | inconclusive: 126 µM [inhibitor, partial curve, poor fit] | 
O=C(NCc1ccccc1)c1ccccc1Nc1ccccc1 | inactive | 
COc1ccccc1Cc1nc(-c2nnn3c2COC(c2ccc(C)cc2)C3)no1 (configuration not stated) | inactive | 
O=c1oc(-c2ccc([N+](=O)[O-])cc2)nc2ccc(O)cc12 | inactive | 
O=C(C1CC1)N1CCCC2(Cc3ccccc3NC2=O)C1 (configuration not stated) | inactive | 
Cc1cccc(Oc2c(C=O)c3ccccc3n2C)c1 | inconclusive: 56.2 µM [inhibitor, partial curve, poor fit] | 
COc1cc(/C=N/Nc2ccc(F)cc2F)cc(OC)c1O | inconclusive: 28.2 µM [inhibitor, partial curve] | 
C=CCn1c(CSc2nc3ccccc3s2)n[nH]c1=S | inconclusive: 50.1 µM [inhibitor, single point] | 
COc1cccc(NC(=O)CN(c2ccc3c(c2)OCO3)S(C)(=O)=O)c1 | inconclusive: 100 µM [inhibitor, single point] | 
CN(C)CC(C)(C)CNC(=O)c1cc(Br)cc(Br)c1O | inconclusive: 1.41 µM [inhibitor, full curve, poor fit] | 
O=C(NCc1coc(-c2cccs2)n1)c1cccc(I)c1 | inactive | 
CC(C)(C)c1ccc(S(=O)(=O)NC(=O)C2(C)CCN2C(=O)Cc2ccccc2Cl)cc1 (configuration not stated) | inconclusive: 35.5 µM [inhibitor, partial curve, poor fit] | 

Another view of some results above.

| Structure (SMILES) | Potency | activity change, negative = inhibition |
| --- | --- | --- |
| O=c1c2ccccc2nnn1CSc1nc2ccccc2c(=O)n1CCCO | inactive |  |
| COc1ccc(N2CCN(C(=O)COC(=O)CNC(=O)c3ccccc3)CC2)cc1 | inconclusive: 126 µM [inhibitor, partial curve, poor fit] |  |
| O=C(NCc1ccccc1)c1ccccc1Nc1ccccc1 | inactive |  |
| COc1ccccc1Cc1nc(-c2nnn3c2COC(c2ccc(C)cc2)C3)no1 (configuration not stated) | inactive |  |

From PubChem BioAssay AID1671190 (National Center for Advancing Translational Sciences (NCATS), 2021)
